Data as given in US9416353B2, “Covalent tethering of functional groups to proteins and substrates therefor” (Promega Corporation, priority 2004, dated 2016).
Some entries share one result that the patent states for a list of compounds.

Assay: Precipitation of DhaA.WT and mutants with (NH4)2SO4
Format: physicochemical
Conditions: 2 hours, 4° C.
Procedure: Aliquots of the supernatant obtained from E. coli expressing DhaA (WT or one of the mutants) were treated with increasing concentrations of (NH4)2SO4. The proteins were exposed to each (NH4)2SO4 concentration for 2 hours (4° C.), pelleted by centrifugation, dialyzed overnight against buffer A, and resolved on SDS-PAGE.

B1: DhaA.WT: wild-type Rhodococcus rhodochrous dehalogenase (DhaA), generally GST at the N-terminus and FLAG at the C-terminus (protein, UniProt P0A3G2 1-293, looked up)
Haloalkane dehalogenase: MSEIGTGFPFDPHYVEVLGERMHYVDVGPRDGTPVLFLHGNPTSSYLWRNIIPHVAPSHRCIAPDLIGMGKSDKPDLDYFFDDHVRYLDAFIEALGLEEVVLVIHDWGSALGFHWAKRNPERVKGIACMEFIRPIPTWDEWPEFARETFQAFRTADVGRELIIDQNAFIEGALPKCVVRPLTEVEMDHYREPFLKPVDREPLWRFPNELPIAGEPANIVALVEAYMNWLHQSPVPKLLFWGTPGVLIPPAEAARLAESLPNCKTVDIGPGLHYLQEDNPDLIGSEIARWLPAL
modifications: N-terminal GST, C-terminal FLAG tag
With B1 the “(NH4)2SO4 concentration that precipitates the protein” value was 45-70%.
